Assay results taken from PubChem BioAssay AID540276 (National Center for Advancing Translational Sciences (NCATS), 2011).
Out of some 300,000 compounds screened, about 5,400 (1.8%) were called active. Inconclusive means that the source gave no clear call. Such entries were picked first, then a sample of the others. The call rests on the fitted dose curve; tested in HEK293 cells. A potency beside an inconclusive call is a rough fit, not a confirmed value.

Test: qHTS for inhibitors of binding or entry into cells for Marburg Virus
Settings: Marburg virus pseudotyped entry inhibition, cell reporter; activity change, negative = inhibition: at 37.8 µM (top of the series) unless noted
On the % scale 0 is the no-effect control and ±100 the full control effect; potency means the concentration at half of the fitted maximal effect.

SMILES | Potency | activity change, negative = inhibition
O=C(Nc1cc(-c2nc3cc(Cl)ccc3o2)ccc1Cl)c1ccco1 | inconclusive: 3.55 µM [activator, full curve] | 
CCCCC/C=C\CC(O)/C=C/c1cccc(CC(O)CCCCO)n1 (stereo unspecified) | inconclusive: 3.98 µM [inhibitor, full curve, poor fit] | 
CCN(CCCNC(=O)Cn1ncc2c3ccccc3n(C)c2c1=O)Cc1ccccc1 | inconclusive: 31.6 µM [inhibitor, single point] | 
CCCSc1ncc(Cl)c(C(=O)Nc2ccc(S(=O)(=O)N(C)c3ccccc3)cc2)n1 |  | inactive: 2.07% [at 46.1 µM]
O=C(CCCN1C(=O)S/C(=C\C=C\c2ccccc2)C1=O)Nc1ccc(O)cc1 | inconclusive: 11.2 µM [inhibitor, partial curve] | 
COCC(=O)N(Cc1cc2cc(C)ccc2[nH]c1=O)c1ccc(C)c(C)c1 | inconclusive: 4.47 µM [inhibitor, full curve, poor fit] | 
CN(Cc1nc2ccccc2n1C)S(=O)(=O)c1ccc(F)cc1 | inconclusive: 3.16 µM [activator, single point] | 
CCS(=O)(=O)n1nc(-c2ccco2)nc1N | inconclusive: 0.562 µM [activator, full curve, poor fit] | 
COC(=O)N1c2ccccc2CCc2ccccc21 | inconclusive: 0.178 µM [inhibitor, full curve, poor fit] | 
C=CCOc1ccc(C2c3c(oc4ccccc4c3=O)C(=O)N2CCCN2CCOCC2)cc1 (stereo unspecified) |  | inactive: 19%
CCOC(=O)c1sc(N(C)C)nc1-c1ccccc1 |  | inactive: 9.92% [at 46.1 µM]
COc1ccc(/C=C/C(=O)c2ccccc2)cc1COc1ccc(F)cc1 | inconclusive: 14.6 µM [inhibitor, partial curve, poor fit] | 
Cc1ccc(OCC2Cn3c(nc4c3c(=O)[nH]c(=O)n4C)O2)cc1C (stereo unspecified) | inconclusive: 22.4 µM [inhibitor, partial curve, poor fit] | 
O=C(Nc1ccc(Br)cc1)C1CCCN1S(=O)(=O)c1ccc(F)cc1 (stereo unspecified) |  | inactive: -10.6% [at 46.1 µM]
Cn1nnnc1SCC(=O)NCC(=O)c1ccccc1 | inactive | 
COc1ccc(-c2csc(-c3[nH]cnc3N)n2)cc1 | inconclusive: 22.4 µM [activator, single point] | 
O=C(Nc1ccccc1)c1cccc(C(=O)Nc2ccccc2)n1 |  | inactive: -1.22% [at 46.1 µM]
O=C1NC(c2ccc(Br)cc2)=N/C1=C/c1ccco1 | inconclusive: 0.1 µM [activator, full curve, poor fit] | 
O=C(NC1CCN(C(=O)N2c3ccccc3Sc3ccccc32)CC1)c1ccco1 | inconclusive: 0.146 µM [inhibitor, full curve, poor fit] | 
O=C(CCc1ccccc1)Oc1ccccc1[N+](=O)[O-] | inconclusive: 3.16 µM [activator, single point] | 
O=C(Nc1ccccc1)C1CCCN1C(=O)Nc1ccccc1[N+](=O)[O-] (stereo unspecified) |  | inactive: -0.319%
COC(=O)Nc1cc(C)nc2ccccc12 |  | inactive: 3.26%
Cc1nn(CC(=O)NC(C)C(C)C)c(C)c1S(=O)(=O)N1CCCCC1 (stereo unspecified) | inconclusive: 1.26 µM [inhibitor, single point] | 

Another view of part of the listing above:
SMILES,Potency,"activity change, negative = inhibition"
CCN(CCCNC(=O)Cn1ncc2c3ccccc3n(C)c2c1=O)Cc1ccccc1,"inconclusive: 31.6 µM [inhibitor, single point]",
CCCSc1ncc(Cl)c(C(=O)Nc2ccc(S(=O)(=O)N(C)c3ccccc3)cc2)n1,,inactive: 2.07% [at 46.1 µM]

(listing goes on)

SMILES | Potency | activity change, negative = inhibition
O=c1[nH]n(-c2ccc(F)cc2)c2ncccc12 |  | inactive: 5.95%
O=[N+]([O-])c1cccc(N(CC(O)CN2CCCCC2)S(=O)(=O)c2ccccc2)c1 (stereo unspecified) | inconclusive: 25.1 µM [activator, single point] | 
Cc1cc(C)nc(NC(=NCCc2c[nH]c3ccccc23)NC(=O)Nc2ccc(Cl)cc2)n1 | inconclusive: 11.2 µM [inhibitor, single point] | 
O=C(COC(=O)c1cc(S(=O)(=O)N2CCCCC2)ccc1N1CCOCC1)c1ccc(F)cc1 |  | inactive: 1.47% [at 46.1 µM]
Cc1cc(C)cc(C(=O)NCC(=O)OCC(=O)Nc2ccc(C)cc2Br)c1 |  | inactive: 1.23% [at 46.1 µM]
COc1ccccc1C1N=C(c2ccccc2C)NO1 (stereo unspecified) | inconclusive: 6.31 µM [activator, single point] | 
O=C1CC(C(=O)O)c2ccccc2N1 (stereo unspecified) |  | inactive: -0.893%
O=C(COC(=O)c1nc(-c2ccccc2)n(-c2cccc(C(F)(F)F)c2)n1)NCc1cccs1 | inconclusive: 2.82 µM [activator, full curve, poor fit] | 
CCN(CC)S(=O)(=O)c1ccc(NC(=O)c2ccc(Sc3nncn3C)c([N+](=O)[O-])c2)cc1 |  | inactive: -3.9%
CCOc1ccccc1/C=N/NC(=O)c1cccc(S(=O)(=O)N2CCOCC2)c1 |  | inactive: 11.8% [at 46.1 µM]
O=C(OC1CCS(=O)(=O)c2sccc21)c1ccccc1 (stereo unspecified) |  | inactive: 0.818%
O=C1Nc2ccccc2SC1c1ccccc1Cl (stereo unspecified) | inconclusive: 35.5 µM [inhibitor, single point] | 
Cc1cccc2cc(CN(Cc3ccco3)C(=O)Nc3cccc(C#N)c3)c(Cl)nc12 | inconclusive: 11.6 µM [inhibitor, partial curve] | 
COc1ccc(Nc2oc(-c3ccc(COc4ccccc4C)o3)nc2C#N)cc1 |  | inactive: -21.3% [at 46.1 µM]
Cc1ccc(C)c(CN2C(=O)c3ccccc3S(=O)(=O)c3ccc(C(=O)NCCC4=CCCCC4)cc32)c1 | inconclusive: 14.1 µM [inhibitor, single point] | 
Cc1cc(C)c(NC(=O)C(C)n2nnc3sc4c(c3c2=O)CCCC4)c(C)c1 (stereo unspecified) |  | inactive: -8.59% [at 46.1 µM]
Cc1ccc2nc3[nH]c(=O)[nH]c(=O)c3c(N)c2c1 | inconclusive: 8.91 µM [inhibitor, partial curve, poor fit] | 
Cc1ccc(CSc2nc3ccccc3c(=O)n2Cc2ccco2)cc1 | inconclusive: 17.8 µM [inhibitor, single point] | 
Cc1ccc(C(=O)c2cn(Cc3ccc(Cl)cc3)c3nc(C)ccc3c2=O)cc1 |  | inactive: -24.7% [at 46.1 µM]
O=C(N/N=C/c1ccc(O)cc1)/C(=C/c1ccccc1)CCO |  | inactive: 7.23%
CCOc1ccc(/C=C/[N+](=O)[O-])c2ccccc12 | inconclusive: 16.4 µM [inhibitor, single point] | 
CC(NCc1cccc(Cl)c1Cl)C(O)c1ccccc1 (stereo unspecified) | inconclusive: 31.6 µM [inhibitor, single point] | 
Nc1c(C(=O)Nc2cccc(Cl)c2Cl)sc2nc(-c3cccnc3)ccc12 | inconclusive: 8.91 µM [activator, partial curve, poor fit] | 
